Measurements reported in PubChem BioAssay AID1259308 (NCATS, 2017).
In all, the deposit lists about 59,000 reagents; below is an unselected part. Over the whole deposit, about 1,510 (2.6%) were called active. 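Calls use total luciferase alone and ignore viability, so some active siRNAs may act by altering cell number.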 A number with no mark means an inactive call.

- Aim: 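Knock-downs that increase output of a recombinant reporter protein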 (primary screen)
- Cells: human HEK293 embryonic kidney cells stably expressing firefly luciferase (HEK-CMV-Luc2-Hygro)
- Reagents: single siRNA against human genes, 0.8 pmol siRNA per well
- Timing: 72 h
- Measurement: 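Reporter luminescence and viable-cell signal on separate replicate plates, given as percent of non-targeting control and median/MAD z-scores, plus per-cell luciferase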
- Scale: total luciferase, z-score and total luciferase, % of control: higher = more reporter protein produced; luciferase per cell, z-score: higher = more reporter output per viable cell; viable cells, % of control: higher = more viable cells
- Call rule: 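Active when the median/MAD z-score for overall luciferase is greater than 3; a gene was taken forward for validation with new siRNAs if at least two of its three siRNAs passed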
- Calls: active = raised luciferase; inactive = no rise

The first 5 entries, ahead of the listing:
| total luciferase, z-score | total luciferase, % of control | luciferase per cell, z-score | viable cells, % of control | gene | PubChem SID |
| --- | --- | --- | --- | --- | --- |
| 0.541 | 92.7 | -0.0171 | 104 | SMDT1 | SID160735189 |
| -1.23 | 57.4 | -1.15 | 86.8 | SMDT1 | SID160735190 |
| 0.178 | 85.4 | 0.479 | 84.2 | SMDT1 | SID160754069 |
| -0.331 | 75.3 | -0.788 | 104 | ADAM28 | SID160729364 |
| -0.124 | 79.4 | -0.636 | 105 | ADAM28 | SID160729365 |

The listing, from the start:
| total luciferase, z-score | total luciferase, % of control | luciferase per cell, z-score | viable cells, % of control | gene | PubChem SID |
| --- | --- | --- | --- | --- | --- |
| 0.541 | 92.7 | -0.0171 | 104 | SMDT1 | SID160735189 |
| -1.23 | 57.4 | -1.15 | 86.8 | SMDT1 | SID160735190 |
| 0.178 | 85.4 | 0.479 | 84.2 | SMDT1 | SID160754069 |
| -0.331 | 75.3 | -0.788 | 104 | ADAM28 | SID160729364 |
| -0.124 | 79.4 | -0.636 | 105 | ADAM28 | SID160729365 |
| 1.01 | 102 | 0.772 | 93 | ADAM28 | SID160729366 |
| 0.215 | 86.2 | -0.0801 | 98.3 | H3-5 | SID160767694 |
| 1.18 | 105 | 0.685 | 98.3 | H3-5 | SID160767696 |
| -0.823 | 65.5 | -0.851 | 91.6 | H3-5 | SID160767697 |
| -0.595 | 70 | -0.685 | 93.7 | ADARB2-AS1 | SID160725540 |
| 1.21 | 106 | 1.21 | 86.1 | ADARB2-AS1 | SID160768601 |
| 0.649 | 94.8 | 0.969 | 82.1 | ADARB2-AS1 | SID160768603 |
| -0.0243 | 81.4 | -0.249 | 97.1 | SIGLEC11 | SID160754908 |
| 0.126 | 84.4 | -0.355 | 104 | SIGLEC11 | SID160754910 |
| -1.89 | 44.3 | -2.04 | 84.8 | SIGLEC11 | SID160754911 |
| -0.528 | 71.4 | -1.03 | 105 | KLHL33 | SID160734313 |
| -0.821 | 65.6 | -0.602 | 85.8 | KLHL33 | SID160756059 |
| 0.223 | 86.3 | 0.29 | 89.4 | KLHL33 | SID160756060 |
| -0.728 | 67.4 | -0.996 | 97.9 | KLHL33 | SID160756061 |
| -0.138 | 79.1 | 1.85 | 54.4 | KLHL33 | SID160771599 |
| 0.567 | 93.2 | 0.246 | 97.6 | KLHL33 | SID160771600 |
| 1.25 | 107 | 0.694 | 99.3 | SNRPE | SID160717136 |
| 3.22 (active) | 146 | 3.53 | 64.4 | SNRPE | SID160717137 |
| 4.49 (active) | 171 | 4.74 | 54.9 | SNRPE | SID160717138 |
| 0.126 | 84.4 | -0.248 | 101 | NUMBL | SID160721819 |
| 2.04 | 122 | 1.45 | 93.4 | NUMBL | SID160721820 |
| -0.284 | 76.2 | -0.532 | 98 | NUMBL | SID160721821 |
| -1.99 | 42.3 | -2.32 | 87.1 | BAD | SID160722765 |
| 0.817 | 98.1 | -0.126 | 113 | BAD | SID160722775 |
| 0.267 | 87.2 | -0.71 | 117 | BAD | SID160722785 |
| -0.672 | 68.5 | 0.293 | 70.9 | POLD3 | SID160729077 |
| 0.445 | 90.7 | 0.107 | 98.6 | POLD3 | SID160729078 |
| 0.16 | 85.1 | 0.0987 | 92.6 | POLD3 | SID160729079 |
| -1.87 | 44.6 | -1.31 | 70.4 | MAGEA12 | SID160776906 |
| -1.27 | 56.6 | -0.864 | 79.4 | MAGEA12 | SID160776907 |
| 1.05 | 103 | 1.79 | 71.7 | MAGEA12 | SID160776908 |
| -0.0294 | 81.3 | -0.737 | 110 | DST | SID160728664 |
| 1.33 | 108 | 1.62 | 78.9 | DST | SID160728674 |
| 0.553 | 92.9 | 0.501 | 91 | DST | SID160728684 |
| 1.97 | 121 | 3.89 | 48.6 | TTK | SID160715875 |
| 0.128 | 84.4 | 0.04 | 93.4 | TTK | SID160716071 |
| 0.785 | 97.5 | 0.598 | 93.1 | TTK | SID160731859 |
| 0.988 | 102 | 0.729 | 93.6 | ENTPD3 | SID160739280 |
| 0.467 | 91.2 | 0.437 | 90.8 | ENTPD3 | SID160739291 |
| 0.369 | 89.2 | 0.096 | 97.2 | ENTPD3 | SID160739302 |
| -0.375 | 74.4 | -0.176 | 87.1 | GULP1 | SID160740835 |
| 1.77 | 117 | 0.913 | 103 | GULP1 | SID160740836 |
| -0.285 | 76.2 | -0.383 | 94.2 | GULP1 | SID160740837 |
| 2.99 | 141 | 2.11 | 90.6 | CIAPIN1 | SID160745506 |
| 0.677 | 95.4 | 0.98 | 82.3 | CIAPIN1 | SID160745507 |
| 1.48 | 111 | 1.08 | 93.5 | CIAPIN1 | SID160745508 |
| 1.92 | 120 | 0.375 | 122 | FGF20 | SID160732865 |
| 0.273 | 87.3 | 0.107 | 94.9 | FGF20 | SID160737909 |
| -1.11 | 59.9 | -0.737 | 81.2 | FGF20 | SID160737910 |
| 0.726 | 96.3 | 0.163 | 103 | CEP68 | SID160732744 |
| 0.414 | 90.1 | 0.103 | 98 | CEP68 | SID160735635 |
| -0.632 | 69.3 | -1.19 | 106 | CEP68 | SID160735637 |
